Here are results for 18 sequences from patent US20100004432, “APTAMER AGAINST MIDKINE AND USE THEREOF” (RIBOMIC INC., published 2010).

For some of these results: Where a protein sequence is shown, tags need not be part of it. For some of these results: Construct, isoform or probe ends are uncertain for at least one entry. For some of these results: No signal at the amounts used counts as a negative.

For one data set, the target named is T1, pleiotrophin (UniProt P21246).
T1 sequence (looked up, limits assumed): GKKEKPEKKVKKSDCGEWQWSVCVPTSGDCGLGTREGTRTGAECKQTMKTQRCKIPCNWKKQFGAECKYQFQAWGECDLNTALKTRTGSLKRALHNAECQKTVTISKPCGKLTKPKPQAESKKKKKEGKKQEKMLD
Nature of the data set: activity in cells. As to conditions: 2'-F pyrimidines, purified recombinant protein, protein details: expressed in yeast; for functional effect of the aptamer (% of SEQ 5 inhibition of midkine): 100 nM RNA; for functional effect of the aptamer: pleiotrophin-driven migration, 100 nM.

The target in data set [1] is T2, midkine (full-length) (Homo sapiens) (UniProt P21741).
T2 sequence (looked up, limits assumed): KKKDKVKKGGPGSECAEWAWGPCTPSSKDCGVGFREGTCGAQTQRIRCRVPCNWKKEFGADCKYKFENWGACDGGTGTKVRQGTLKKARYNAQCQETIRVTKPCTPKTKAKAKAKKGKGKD
Nature of the data set: activity in cells. The settings on record: purified recombinant protein, protein details: expressed in yeast; for functional effect of the aptamer (% of SEQ 5 inhibition): 100 nM RNA.

The subject of a further data set is IgG1 (Homo sapiens). Nature of the data set: SPR. As to conditions: 2'-F pyrimidines; RNA immobilized on SA chip; purified native protein; protein details: Calbiochem.
Where [2] appears, read: 2'-F pyrimidines, variant of SEQ ID NO:32.

Take “GGAGAAGAGGAAGUGUGCACAGGGGUUGGUGUCGGGUGCAUACAGUAUAAGAUAGAGGACA [SEQ ID NO:33]”: the functional effect of the aptamer (% of SEQ 5 inhibition of midkine) with pleiotrophin (variant of SEQ ID NO:5) is 5.
Take “GGAGGAAGUGUGCACAGGGGUUGGUGUCGGGUGCAUACAGUAUAAG [SEQ ID NO:34]”: the functional effect of the aptamer (% of SEQ 5 inhibition) in data set [1] (2'-F pyrimidines, variant of SEQ ID NO:5) was determined as 0.
For “GGGAAGGAGAAGAGGAAGUGCACAGGGGUUGGUGUCGGGUGCACAGUAUAAG [SEQ ID NO:41]”, the functional effect of the aptamer (% of SEQ 5 inhibition of midkine) with pleiotrophin (variant of SEQ ID NO:36) turned out to be 8.1.
Consider “GGGAAGGAGGAAGUGCACCCGGGUUGGUGUCGGGUGCAC [SEQ ID NO:65]”, for which the functional effect of the aptamer (% of SEQ 40 inhibition) in data set [1] (2'-F pyrimidines, 500 nM RNA, variant of SEQ ID NO:61) came to 0.
For the sequence “GGGAGAGGAACGCUACGAGGAGUAGCGGAAAGAAGCGGCGUAGC [SEQ ID NO:21]”, the functional effect of the aptamer (% of SEQ 4 inhibition) in data set [1] (2'-F pyrimidines, 500 nM RNA, activity lost, variant of SEQ ID NO:17) was 0.
As to “GGGAGAGGAGAAGAGGAAAUAGUUAAGGGUGAAUUUGCGAAAGCUAUUUUAGUCGCAGUAGAGGACAGGAAUGAGGA [SEQ ID NO:1]”, in the data set with pleiotrophin, the functional effect of the aptamer was 0 % inhibition.
Take “GGGAGAGGAGAAGAGGAACGUGCUCUGUACGAGGAGUAGCCGGAAAGAAGGCGGUGUGUAGAGGACAGGAAUGAGA [SEQ ID NO:4]”: in the data set with pleiotrophin, the functional effect of the aptamer stood at 8 % inhibition. In the data set on IgG1 (Homo sapiens), the binding result is given as “no binding”.
As for “GGGAGAGGAGAAGAGGAAGCACAGGGGUUGGUGUCGGGUGCAGUAUAAG [SEQ ID NO:37]”, in data set [1] (setting [2]), the functional effect of the aptamer (% of SEQ 5 inhibition) was found to be 0.
On to “GGGAGAGGAGAAGAGGAAGUGCACAGGGGUUGGUGUCGGGUGCACAGUAUAAG [SEQ ID NO:36-1]”, for which the functional effect of the aptamer (% of SEQ 5 inhibition of midkine) in the data set with pleiotrophin (2'-OMe on all of 5' single strand (nt 1-18), variant of SEQ ID NO:36) was 0.
“GGGAGAGGAGAAGAGGAAGUGCACAGGGGUUGGUGUCGGGUGCACAGUAUAAG [SEQ ID NO:36]”: in the data set with pleiotrophin (variant of SEQ ID NO:32), the functional effect of the aptamer (% of SEQ 5 inhibition of midkine) was 27.
For “GGGAGAGGAGAAGAGGAAGUGUGCACAGGGGUUGGUGUCGGGUGCAUAC [SEQ ID NO:40]”, in the data set with pleiotrophin (variant of SEQ ID NO:36), the functional effect of the aptamer (% of SEQ 5 inhibition of midkine) amounted to 0.
With “GGGAGAGGAGAAGAGGAAGUGUGCACAGGGGUUGGUGUCGGGUGCAUACAG [SEQ ID NO:35]”, in the data set with pleiotrophin (variant of SEQ ID NO:32), the functional effect of the aptamer (% of SEQ 5 inhibition of midkine) stood at 0.
On to “GGGAGAGGAGAAGAGGAAGUGUGCACAGGGGUUGGUGUCGGGUGCAUACAGUAUAAG [SEQ ID NO:32]”, for which the functional effect of the aptamer (% of SEQ 5 inhibition of midkine) in the data set with pleiotrophin (variant of SEQ ID NO:5) is 11.
Same read-out and setting: the value for “GGGAGAGGAGAAGAGGAAGUGUGCACAGGGGUUGGUGUCGGGUGCAUACAGUAUAAGAUAGAGGACA [SEQ ID NO:31]” was 17.
Consider “GGGAGAGGAGAAGAGGAAGUGUGCACAGGGGUUGGUGUCGGGUGCAUACAGUAUAAGAUAGAGGACAGGAAUGAGA [SEQ ID NO:5]”, for which the binding result in the data set on IgG1 (Homo sapiens) is “no binding”.
On to “GGGAGAGGAGAGAGGAAGUGCACAGGGGUUGGUGUCGGGUGCACAGUAUAAG [SEQ ID NO:42]”, for which, in the data set with pleiotrophin (variant of SEQ ID NO:36), the functional effect of the aptamer (% of SEQ 5 inhibition of midkine) amounted to 8.7.
Turning to “GGGUUUUUUUUUUUUUUUGUGUGCACAGGGGUUGGUGUCGGGUGCAUACAGUAUAAG [SEQ ID NO:38]”, the functional effect of the aptamer (% of SEQ 5 inhibition) in data set [1] (setting [2]) worked out at 0.
On to “TGGTTGGTGTGGTTGGTAAAAAAAAAAAAAAAA [Thrombin-S]”, for which the functional effect (% of SEQ 40 inhibition) in data set [1] (PS at marked linkages t'ggttggtgtggttgg't, 500 nM, control, single-stranded DNA) worked out at 0.
